The list shows only some results of the screen, not a fair sample: it is rich in T/C values a quarter to a half above the control, in often repeated tests (any T/C) and in doses without a T/C. Other doses and runs of a compound stand elsewhere. T/C: endpoint of the treated group in % of that of the vehicle group. For survival time, this PubChem deposit counts one and a half times the control or more as active, and values a quarter to a half above the control carry no call in these data; other NCI protocols may use other cut-offs. Schedules are NCI's codes, read here as Q, the interval in days (D) or hours (H), X, the number of doses. Some T/C values are followed by the survivors on the day toxicity was checked, most often the fifth; without a count, all were alive then. Some entries hold several experiments; their values stand side by side, smallest first. Marks such as (2×) stand for listed records that agree. Some schedule codes hold Z or #, which are not explained here.
Test system: L1210 leukemia ip in BDF1 mice, survival T/C
Assay: NCI In Vivo Anticancer Drug Screen. Data for tumor model L1210 Leukemia (intraperitoneal) in B6D2F1 (BDF1) mice
Conditions: T/C endpoint: mean survival time, higher T/C = longer survival

SMILES: O=NN(CCCl)C(=O)NCCCl
- T/C (dose: 0.5 mg/kg/injection, schedule: Q#A X Z (oral), vehicle: saline): 125 % of control
- T/C (dose: 0.6 mg/kg/injection, schedule: Q01DX Z (ip), vehicle: saline): 139 % of control
- T/C (dose: 0.75 mg/kg/injection, schedule: Q01DX009 (ip), vehicle: saline): 125 % of control
- T/C (dose: 0.75 mg/kg/injection, schedule: Q01DX015 (ip), vehicle: saline): 129 % of control
- T/C (dose: 0.75 mg/kg/injection, schedule: Q13HX018 (ip), vehicle: saline): 141 % of control
- T/C (dose: 0.9 mg/kg/injection, schedule: Q01DX009 (ip), vehicle: saline + alcohol): 134 % of control
- T/C (dose: 1.25 mg/kg/injection, schedule: Q01DX009 (ip), vehicle: saline): 129, 132, 137, 150 % of control
- T/C (dose: 1.3 mg/kg/injection, schedule: Q01DX010 (ip), vehicle: saline): 140 % of control
- T/C (dose: 1.5 mg/kg/injection, schedule: Q01DX009 (ip), vehicle: saline): 144 % of control
- T/C (dose: 1.5 mg/kg/injection, schedule: Q01DX009 (sc), vehicle: saline): 127 % of control
- T/C (dose: 1.5 mg/kg/injection, schedule: Q01DX015 (ip), vehicle: saline): 145 % of control
- T/C (dose: 1.5 mg/kg/injection, schedule: Q## X024 (oral), vehicle: saline): 142 % of control
- T/C (dose: 1.56 mg/kg/injection, schedule: Q01DX Z (ip), vehicle: carboxymethylcellulose (CMC)): 127 % of control
- T/C (dose: 1.8 mg/kg/injection, schedule: Q01DX009 (ip), vehicle: saline + alcohol): 144, 155, 156, 157 % of control
- T/C (dose: 2.0 mg/kg/injection, schedule: Q01DX009 (ip), vehicle: Klucel (hydroxypropylcellulose) (HPC)): 125, 139, 140, 150 % of control
- T/C (dose: 2.0 mg/kg/injection, schedule: Q01DX009 (ip), vehicle: saline + alcohol): 124, 133, 140, 143, 145, 148, 155 % of control
- T/C (dose: 2.0 mg/kg/injection, schedule: Q01DX009 (ip), vehicle: saline, evaluated on day 30): 119, 138, 151, 159, 160 (2×), 162 [5 of 6 alive], 166 (2×), 170, 177, 180, 182, 293 % of control
- T/C (dose: 2.0 mg/kg/injection, schedule: Q01DX009 (ip), vehicle: saline, evaluated on day 60): 137, 152, 153, 158 % of control
- T/C (dose: 2.0 mg/kg/injection, schedule: Q01DX Z (oral), vehicle: saline): 129 % of control
- T/C (dose: 2.33 mg/kg/injection, schedule: Q02DX010 (ip), vehicle: other): 148 % of control
- T/C (dose: 2.5 mg/kg/injection, schedule: Q01DX009 (ip), vehicle: saline): 179, 192, 204, 231 % of control
- T/C (dose: 3.0 mg/kg/injection, schedule: Q01DX001 (ip), vehicle: saline): 131 % of control
- T/C (dose: 3.0 mg/kg/injection, schedule: Q01DX005 (oral), vehicle: saline): 147 % of control [9 of 10 alive]
- T/C (dose: 3.0 mg/kg/injection, schedule: Q## X003 (ip), vehicle: saline): 132 % of control
- T/C (dose: 3.0 mg/kg/injection, schedule: Q## X024 (ip), vehicle: saline): 145 % of control
- T/C (dose: 3.0 mg/kg/injection, schedule: Q## X Z (ip), vehicle: saline): 130 % of control
- T/C (dose: 3.5 mg/kg/injection, schedule: Q01DX009 (ip), vehicle: saline + alcohol): 181, 200, 234, 242 % of control
- T/C (dose: 3.5 mg/kg/injection, schedule: Q02DX010 (ip), vehicle: saline): 135 % of control
- T/C (dose: 4.0 mg/kg/injection, schedule: Q01DX001 (ip), vehicle: Klucel (hydroxypropylcellulose) (HPC)): 129 % of control
- T/C (dose: 4.0 mg/kg/injection, schedule: Q01DX001 (ip), vehicle: distilled water + alcohol): 132 % of control
- T/C (dose: 4.0 mg/kg/injection, schedule: Q01DX001 (ip), vehicle: other, evaluated on day 9): 129 % of control
- T/C (dose: 4.0 mg/kg/injection, schedule: Q01DX001 (ip), vehicle: other, evaluated on day 60): 132 % of control
- T/C (dose: 4.0 mg/kg/injection, schedule: Q01DX006 (iv), vehicle: saline): 141 % of control
- T/C (dose: 4.0 mg/kg/injection, schedule: Q01DX009 (ip), vehicle: Klucel (hydroxypropylcellulose) (HPC)): 162, 164, 168, 178 % of control
- T/C (dose: 4.0 mg/kg/injection, schedule: Q01DX009 (ip), vehicle: saline + alcohol): 157, 170, 171, 183, 194, 200, 220 % of control
- T/C (dose: 4.0 mg/kg/injection, schedule: Q01DX009 (ip), vehicle: saline, evaluated on day 30): 146, 167, 200, 206, 213, 216, 220, 227, 233, 262 [4 of 6 alive], 265, 291, 326, 329 % of control
- T/C (dose: 4.0 mg/kg/injection, schedule: Q01DX009 (ip), vehicle: saline, evaluated on day 60): 205, 211, 266, 274 % of control
- T/C (dose: 4.0 mg/kg/injection, schedule: Q01DX Z (oral), vehicle: saline): 149 % of control
- T/C (dose: 4.0 mg/kg/injection, schedule: Q04DX002 (ip), vehicle: saline + alcohol): 128 and 130 % of control
- T/C (dose: 4.2 mg/kg/injection, schedule: Q02DX008 (ip), vehicle: other): 141 % of control
- T/C (dose: 4.5 mg/kg/injection, schedule: Q03HX032 (ip), vehicle: saline + alcohol): 144 % of control
- T/C (dose: 4.5 mg/kg/injection, schedule: Q## X032 (ip), vehicle: saline + alcohol): 144 % of control
- T/C (dose: 5.0 mg/kg/injection, schedule: Q01DX001 (ip), vehicle: other): 126 % of control
- T/C (dose: 5.0 mg/kg/injection, schedule: Q01DX009 (ip), vehicle: saline): 138, 292, 324, 375 % of control
- T/C (dose: 6.0 mg/kg/injection, schedule: Q01DX001 (ip), vehicle: saline): 145 % of control
- T/C (dose: 6.0 mg/kg/injection, schedule: Q01DX001 (sc), vehicle: saline): 137 % of control
- T/C (dose: 6.0 mg/kg/injection, schedule: Q03DX Z (oral), vehicle: saline): 139 % of control
- T/C (dose: 6.0 mg/kg/injection, schedule: Q13HX018 (ip), vehicle: saline): 131 % of control

From PubChem BioAssay AID248 (DTP/NCI, 2004)
